This note sets out measurements from doi:10.1101/2022.10.05.510979.

Test [1] has as its target T1, biotinylated Dvl2 (Dishevelled segment polarity protein 2) oligopeptide ….
T1 sequence (peptide, biotin (position not stated)): HPYSPQPPPYHELSSY
Kind of test: pull-down.

The target in test [2] is T2, biotinylated Wbp1 (WW domain binding protein 1) oligopeptide ….
T2 sequence (peptide, biotin (position not stated)): SGSGGTPPPPYTVG
Description: pull-down.

No constants are given. Whether binding was seen depends on the method and setting. Binding seen in cells or lysates may run through a third protein. Some results given as binding are weak or reduced against the parent protein; the word gives no strength.

B1: Wwox (WW domain-containing oxidoreductase), wildtype, from Wwox^WT/WT mice (protein, UniProt Q91WL8 1-414)
chain: MAALRYAGLDDTDSEDELPPGWEERTTKDGWVYYANHTEEKTQWEHPKTGKRKRVAGDLPYGWEQETDENGQVFFVDHINKRTTYLDPRLAFTVDDNPTKPTTRQRYDGSTTAMEILQGRDFTGKVVLVTGANSGIGFETAKSFALHGAHVILACRNLSRASEAVSRILEEWHKAKVEAMTLDLAVLRSVQHFAEAFKAKNVSLHVLVCNAGTFALPWGLTKDGLETTFQVNHLGHFYLVQLLQDVLCRSSPARVIVVSSESHRFTDINDSSGKLDLSRLSPPRSDYWAMLAYNRSKLCNILFSNELHRRLSPRGVTSNAVHPGNMMYSAIHRNSWVYKLLFTLARPFTKSMQQGAATTVYCAVAPELEGLGGMYFNNCCRCLPSEEAQSEETARALWELSERLIQDRLGSPSS
Turning to B1, the binding result in test [1] and in test [2] was “binds” in each case.
